Earlier results as cited in patent US6355677B1, “Adrenoleukodystrophy treatments and drug screening” (The Johns Hopkins University, priority 1998, dated 2002).
At least one structure is not confirmed: it was looked up by name or label, or the drawing left a doubt.

What was measured:
peroxisome proliferation = conditions: in rodents; cited from earlier work
ALDRP, PMP70, ALDP = conditions: in rats; cited from earlier work

Row | Compound | Peroxisome proliferation (peroxisome proliferation) | Expression of ALDP (ALDRP, PMP70, ALDP) | Expression of ALDRP and PMP70 (ALDRP, PMP70, ALDP)
1 | CCOC(=O)C(C)(C)Oc1ccc(Cl)cc1 [clofibrate] | induces peroxisome proliferation | – | –
2 | CC(C)OC(=O)C(C)(C)Oc1ccc(C(=O)c2ccc(Cl)cc2)cc1 [Fenofibrate] | induces peroxisome proliferation | but not ALDP | increases expression
